In PubChem BioAssay AID2685 (National Center for Advancing Translational Sciences (NCATS), 2010):
The other results are listed elsewhere or left out. These are further read-outs of the screen, such as a control signal, another cell line or another target. No call is given for them. Most of these compounds were active or inconclusive in the main read-out, so they are no random draw. The note in brackets gives the kind of curve behind each potency; many fits are weak.

Assay: qHTS Assay for Lipid Storage Modulators in Drosophila S3 Cells;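 on cell number change: cells counted by Cell Tracker Red CMTPX staining in the red channel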
Conditions: BODIPY lipid droplet fluorescence, 18-24 h; for cell number change: measured here: cell count max response, cells fed with added oleic acid
Method in brief: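 Drosophila S3 cells got compounds at several concentrations plus oleic acid (400 uM solution). Laser-scanning cytometry with 488 nm excitation read lipid droplets at 500-530 nm and cells at 575-640 nm. Percent activity was relative to 20 uM Triacsin C.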

[1] = measured here: lipid fluorescence (Fed channel) AC50, cells fed with added oleic acid
[2] = measured here: cell number channel AC50, cells fed with added oleic acid

SMILES	cell number change [%]	AC50 [1]	AC50 [2]
COCCNC(=O)Cn1c(=O)n(C)c2ccccc21	-18.2	0.206 µM [falling, full curve]	–
CC(NC(=O)CN1C(=O)NC2(CCCCCC2)C1=O)c1ccccc1 (stereo not given)	21.7	6.51 µM [falling, partial curve, poor fit]	6.51 µM [falling, single point]
CC(C)(C)C1=CC(O)(c2ccccc2)C=C(C(C)(C)C)C1=O	-52.8	20.6 µM [falling, partial curve]	14.6 µM [falling, single point]
OC[C@H]1O[C@@H](n2cnc3c(Nc4ccccc4)ncnc32)[C@H](O)[C@@H]1O	38.8	29.1 µM [rising, single point]	29.1 µM [rising, single point]
COc1ccc(CNC(=O)C(C)OC(=O)c2cccs2)cc1 (stereo not given)	-13.5	–	2.91 µM [falling, partial curve]
CCc1ccc(N2NC(=O)/C(=C/C=C/c3ccco3)C2=O)cc1	-38	11.6 µM [falling, partial curve, poor fit]	11.6 µM [falling, partial curve, poor fit]
CCn1nc(C)c(CN2CCC(n3nccc3NC(=O)c3ccc4c(c3)OCO4)CC2)c1C	14.9	0.1 µM [rising, full curve, poor fit]	–
CCOc1nc(C)nc(NC(=O)NS(=O)(=O)c2ccccc2Cl)n1	20.4	29.1 µM [falling, single point]	–
COc1ccc(CCNC(=S)NCCc2c[nH]c3ccccc23)cc1	58.9	–	13 µM [rising, partial curve, poor fit]
O=c1c2ccccc2nc2n1C(CSCc1ccc(Cl)cc1Cl)CS2 (stereo not given)	-9.59	6.51 µM [rising, single point]	–
COc1ccc(C2NC(=O)N(C)C3=C2C(=O)CC(C)(C)C3)cc1OC (stereo not given)	4.23	–	–
CCOc1ccc(Cl)cc1/C=N/NC(=O)CNC(=O)c1ccccc1	28.6	1.46 µM [rising, full curve]	–
Cc1cc(C)nc(NC(=NCCc2c[nH]c3ccccc23)NC(=O)Nc2cccc([N+](=O)[O-])c2)n1	-5.46	0.0058 µM [falling, full curve, poor fit]	1.64 µM [falling, partial curve]
CN(Cc1ccccc1NCC(=O)Nc1ccccc1C#N)C1CCCCC1	51.6	29.1 µM [rising, single point]	23.1 µM [rising, single point]
CCCN(CC(=O)Nc1ccccc1C)C(=O)c1oc2ccc(OCC)cc2c1C	20.4	0.092 µM [rising, full curve, poor fit]	0.116 µM [rising, full curve, poor fit]
CCc1cccc(CC)c1NC(=O)C1CCN(C(=O)c2ccco2)CC1	19.2	–	–
N/C(=N\N=C\c1ccc([N+](=O)[O-])cc1)c1nonc1N	36	0.116 µM [rising, full curve]	0.651 µM [rising, partial curve]
COc1ccc(NC(=O)COn2nnc3ccc(Cl)cc32)cc1OC	68.6	29.1 µM [rising, single point]	29.1 µM [rising, single point]
CN(C)CCN(C(=O)c1ccc2ccccc2c1)c1nc2cc3c(cc2s1)OCCO3	32.3	0.82 µM [rising, full curve, poor fit]	1.03 µM [rising, full curve, poor fit]
O=C(NCCCN1CCOCC1)c1cn(-c2ccccc2)nc1-c1cccs1	2.81	–	–

SMILES	cell number change [%]	AC50 [1]	AC50 [2]
C/C(=N\NS(=O)(=O)c1ccc(Br)cc1)c1ccncc1	16.2	29.1 µM [rising, single point]	–
CCN(CC(=O)Nc1ccc(NC(C)=O)cc1)CC(=O)Nc1ccc(F)c(Cl)c1	–	0.411 µM [falling, single point]	–
CC1CCCCN1CCCNC(=O)CCCN1C(=O)c2cccnc2Sc2ccccc21 (stereo not given)	23.6	–	2.31 µM [rising, full curve, poor fit]
Cc1cc(NC(=O)c2cnn3c(C(F)F)cc(-c4ccccc4)nc23)no1	3.63	–	–
CC(NC(=O)C1CCN(C(=O)c2cccs2)CC1)c1ccc(S(N)(=O)=O)cc1 (stereo not given)	5.76	–	–
COc1ccc(C(C(=O)NC(C)(C)C)N(C(=O)CCC(=O)Nc2cc(C)on2)c2cc(C)cc(C)c2)cc1 (stereo not given)	7.83	–	–
COC(=O)C1=C(N)Oc2cc(C)[nH]c(=O)c2C1c1ccccc1OC (stereo not given)	25.1	–	–
OCCNCCNCc1ccccc1OCc1ccccc1	156	–	–
Cc1nn(Cc2cccc(Oc3ccccc3)c2)c(C)c1NC(=O)NC12CC3CC(CC(C3)C1)C2	-33.4	2.31 µM [falling, full curve, poor fit]	2.59 µM [falling, full curve, poor fit]
CCOc1ccc(NC(=O)C2CCCN(S(=O)(=O)c3ccc(-n4cnnn4)cc3)C2)cc1 (stereo not given)	-39.7	–	6.51 µM [falling, full curve, poor fit]
CCCc1cc(=O)[nH]c(SCC)n1	-24.7	14.6 µM [falling, partial curve]	–
COCC(C)n1c(SC(C)C(=O)NC2CCCCC2C)nc2ccccc2c1=O (stereo not given)	28.4	25.9 µM [rising, partial curve, poor fit]	–
CN(Cc1ccc(F)cc1)C(=O)CNC(=O)c1ccc2c(c1)OCO2	-12.6	5.8 µM [falling, partial curve]	–
COC(=O)/C(=C/c1ccco1)NC(=O)c1ccccc1	23.9	0.291 µM [rising, full curve, poor fit]	–
O=C(Cc1ccc2c(c1)OCCO2)N1CCN(S(=O)(=O)c2cccs2)CC1	16.6	–	–
COc1ccc(N=c2oc3c(OC)cccc3cc2C(=O)NCc2ccco2)c(OC)c1	-4.41	18.4 µM [rising, single point]	–
CCN1CCCC1CNCc1cccc(OC)c1OCc1ccccc1F (stereo not given)	6.72	29.1 µM [falling, partial curve]	–
COc1ccc([C@H]2CC(=O)C=C(c3cc(F)ccc3F)C2)cc1OC	-10.2	16.4 µM [falling, single point]	–
CCn1cnc2c(Nc3cc(F)cc(F)c3)nc(C#N)nc21	–	5.17 µM [falling, single point]	–
COc1ccc(C2=NS(=O)(=O)N(C)C(C(=O)NC(C)c3ccccc3)=C2)cc1 (stereo not given)	0.865	–	–

4 compounds out of the list, arranged by heavy-atom count, high to low:
SMILES	cell number change [%]	AC50 [1]	AC50 [2]
COCC(C)n1c(SC(C)C(=O)NC2CCCCC2C)nc2ccccc2c1=O (stereo not given)	28.4	25.9 µM [rising, partial curve, poor fit]	–
COc1ccc(C2=NS(=O)(=O)N(C)C(C(=O)NC(C)c3ccccc3)=C2)cc1 (stereo not given)	0.865	–	–
O=C(Cc1ccc2c(c1)OCCO2)N1CCN(S(=O)(=O)c2cccs2)CC1	16.6	–	–
COC(=O)C1=C(N)Oc2cc(C)[nH]c(=O)c2C1c1ccccc1OC (stereo not given)	25.1	–	–

Further results

SMILES	cell number change [%]	AC50 [1]	AC50 [2]
CCC(C)(C)n1nnnc1CN(Cc1cccs1)Cc1cc2cc(OC)ccc2[nH]c1=O	-28.3	1.16 µM [rising, full curve]	–
COc1cc(CNc2ccc(CNc3ncn[nH]3)cc2)ccc1OCC(=O)NC(C)(C)C	47.5	2.91 µM [rising, full curve]	7.31 µM [rising, partial curve, poor fit]
CCC(=O)Nc1ccc(NC(=O)CSc2nnnn2C2CCCC2)cc1C	-2.82	–	–
COc1ccccc1CNC(=O)c1cn(C)c(=O)c2cc(OC)c(OC)cc12	-3.98	–	–
CC(=O)Nc1ccc(NC(=O)COc2ccc(-c3ccccc3)cc2)cc1	9.35	–	–
Cc1ccccc1C(=O)Nc1ccc(Br)c(C)n1	-18.1	–	–
Oc1oc(-c2ccccc2)nc1C=Nc1cccc2ccccc12	–	6.51 µM [rising, single point]	–
Cc1cccc(-c2noc(CN(C(=O)/C=C/c3ccccc3Cl)C(C)C)n2)c1	30.6	2.31 µM [rising, partial curve]	9.2 µM [rising, partial curve, poor fit]
CCN(CC1CCCO1)C(=O)C1CCN(C2CCN(Cc3ccccc3C)CC2)CC1 (stereo not given)	–	–	6.31 µM [falling, single point]
O=C(CSc1nnc(COc2ccccc2)o1)Nc1ccc(F)cc1	-21.9	6.51 µM [falling, single point]	–
COc1cc(OC)cc(C(=O)NC(C(=O)NNC(=O)c2ccc(C)cc2)C(C)C)c1 (stereo not given)	-2.56	0.00517 µM [rising, full curve, poor fit]	–
O=S(=O)(CCc1ccccc1)N1CCOCC1	–	16.4 µM [falling, partial curve]	–
CC(=O)NCCCOc1ccc([N+](=O)[O-])cc1Cl	-13.3	0.82 µM [falling, partial curve, poor fit]	–
Cc1cc(N)nc2nc(C(F)(F)F)nn12	11.6	0.82 µM [rising, single point]	–
O=C(Cn1c(=O)[nH]c2ccccc2c1=O)N1CCN(c2cccc(Cl)c2)CC1	-33.9	8.2 µM [falling, partial curve]	3.66 µM [falling, full curve]
CC(=O)c1ccc(N2CCN(CC(O)c3ccccc3)CC2)cc1 (stereo not given)	-23.6	14.6 µM [rising, partial curve, poor fit]	–
O=C1C(c2ccccc2)NC(=S)N1C1CCCCC1 (stereo not given)	-12.9	29.1 µM [rising, single point]	–
Nc1cc(-c2ccc(Cl)cc2)nn1-c1ccccc1	-4.56	0.146 µM [falling, full curve, poor fit]	–
CC(=O)N1CCc2cc(Br)cc(S(=O)(=O)N3CCN(c4ccccn4)CC3)c21	–	0.82 µM [rising, full curve]	6.51 µM [rising, single point]
O=C(CN1C(=O)c2ccccc2C1=O)NC1CCCCCC1	-28.6	–	1.64 µM [falling, full curve, poor fit]
